Data as given in PubChem BioAssay AID1159578 (Peter MacCallum Cancer Centre, 2015)

Purpose: 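siRNA pools altering how lymphatic endothelial cells close a scratch wound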 (primary screen)
Cells: human lymphatic endothelial cells
Knock-down reagent: siRNA pool against human genes, 40 nM
Duration: 48 h after transfection
Measurement: 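High-content imaging of dye-stained cells in a scratch assay measures filled wound area and nuclei per well; duplicate means given as ratio to mock and robust z-score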
Scale: migration robust z-score: higher = faster migration into the scratch; nuclei per well: higher = more cells in the well
Call rule: 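Pools averaging fewer than 3300 nuclei are never called; remaining pools count as changed when migration robust z lies outside -2 to 2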
Calls: active = migration changed; inactive = no migration change, or too few cells
Shown is one part, drawn at random, of about 18,000 reagents. Of all reagents, about 1,030 (5.7%) were called active. 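Inactive calls also include pools with fewer than 3300 nuclei, whose migration was not assessed.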 The raw values are shown without normalisation. Not all columns of the deposit are shown.

gene symbol	migration robust z-score	nuclei per well, duplicate mean	Call
OR6Y1	1.91	5416	inactive
DCAF15	1.3	5936	inactive
TPM4	-0.86	5032	inactive
ATR	0.1	4346	inactive
CACNA1G	-0.26	5248	inactive
HPN	0.44	5703	inactive
UBE2L6	0	4784	inactive
KRT36	0.13	4603	inactive
CYP21A2	0.38	5767	inactive
GUCY1A2	-0.02	5768	inactive
TMEM44	-1.1	6090	inactive
LTO1	-0.6	5087	inactive
RCAN1	-1.45	4394	inactive
NBPF11	1.4	6192	inactive
HEMK1	0.43	6882	inactive
UBR3	-0.18	5292	inactive
ATXN7	-0.64	3766	inactive
PSAP	0.61	4428	inactive
VNN2	1.22	5832	inactive
TBC1D24	-3.36	4896	active
OBSL1	-1.86	3962	inactive
DBP	-2.51	4554	active
SFSWAP	-2.02	3699	active
THAP11	1.02	5426	inactive
SHFL	0.1	4602	inactive
VCX3A	-2.34	4844	active
NOCT	0.8	5166	inactive
TAPBP	-1.98	3792	inactive
NAA38	-1.31	3666	inactive

The list goes on (3 carried over from the part before).
gene symbol	migration robust z-score	nuclei per well, duplicate mean	Call
NOCT	0.8	5166	inactive
TAPBP	-1.98	3792	inactive
NAA38	-1.31	3666	inactive
CDC42EP4	1.15	4809	inactive
PSMD6	-1.57	4805	inactive
AQP2	-0.24	4949	inactive
EXOG	0.75	3672	inactive
SAMD10	0.04	6725	inactive
ZNF473	-0.73	5620	inactive
ING5	-1.04	5043	inactive
TNFSF18	0.48	7746	inactive
A4GNT	-0.54	6007	inactive
ADAP2	-0.14	5338	inactive
BPNT2	-1.48	5948	inactive
ADAM8	-0.93	6277	inactive
HPSE	-0.2	4894	inactive
HSDL2	-0.39	6025	inactive
CHRM2	1.9	6240	inactive
MAPK10	-0.86	6225	inactive
TAS2R42	2.06	6043	active
MIA	0.8	6516	inactive
GPR75	-0.65	5668	inactive
GTF2H1	-0.26	5636	inactive
UBL3	0.88	5758	inactive
ANKRD36	0.31	5608	inactive
SPANXN4	0.22	6582	inactive
SUFU	1.33	5624	inactive
SNRPA	-0.1	5130	inactive
LRR1	1.86	5748	inactive
BAIAP2L1	0.94	4938	inactive
ENPP4	0.86	5322	inactive
LAMC1	-1.3	5631	inactive
TXN2	-0.91	3316	inactive
KCNB1	-1.66	5452	inactive
RANBP1	0.02	5590	inactive
TMOD4	0.94	6030	inactive
SOD1	-2.02	3938	active
TFAP2D	1.43	4204	inactive
MS4A13	0.94	7486	inactive
PRIM1	1.3	4977	inactive
TSLIG2	0.8	5374	inactive
CLDND1	-0.39	4774	inactive
OTUD3	0.16	4548	inactive
TMEM183BP	-1.57	4649	inactive
L3HYPDH	-0.29	4540	inactive
CD38	-0.54	5360	inactive
DHPS	-1.14	5564	inactive
